In paper PMC7819943, “Rice protein-binding microarrays: a tool to detect cis-acting elements near promoter regions in rice”:
This is one part of the list.

target: T1, OsSMF1 (Oryza sativa, UniProt Q6ZLB0 1-436); assay: protein-binding microarray (RPBM); PBS, 2% BSA, 51.3 ng/ul salmon testes DNA, 50 uM zinc acetate, 200 nM TF, 25 C, 1 h; high values mean tight binding; conditions: protein: recombinant; tags: N-terminal polyhistidine and DsRed monomer fusion (pET32a); chain copies: 2; label: CyDye5-dUTP incorporated in the synthesized complementary strand; 3' TTTTT single-stranded linker to array surface; dsDNA, one strand shown
T1 sequence: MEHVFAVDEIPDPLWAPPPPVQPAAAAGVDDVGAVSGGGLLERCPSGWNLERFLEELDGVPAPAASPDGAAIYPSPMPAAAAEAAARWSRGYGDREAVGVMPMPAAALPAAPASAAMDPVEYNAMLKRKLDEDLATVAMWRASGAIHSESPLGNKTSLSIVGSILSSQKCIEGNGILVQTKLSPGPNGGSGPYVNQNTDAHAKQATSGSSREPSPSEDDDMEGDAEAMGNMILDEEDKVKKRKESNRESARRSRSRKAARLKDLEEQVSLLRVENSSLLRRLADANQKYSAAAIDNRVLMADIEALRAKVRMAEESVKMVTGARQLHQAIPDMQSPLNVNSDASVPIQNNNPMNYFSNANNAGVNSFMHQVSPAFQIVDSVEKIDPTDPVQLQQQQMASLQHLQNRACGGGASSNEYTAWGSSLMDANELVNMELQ
Method in brief: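 Binding signal is defined as the fluorescence intensity of each feature in arbitrary units, read on an Axon 4000B scanner. Transcription factors with N-terminal polyhistidine and DsRed fusions came from E. coli BL21-CodonPlus and were purified on Ni–NTA. They were incubated at 200 nM for 1 h at 25 °C on a custom Agilent array that had been made double-stranded with Cy5-dUTP, with 50 µM zinc acetate present, and the array was washed.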

Sequence | binding signal
CGCCTCAAGCAGTGGCGATGGCGGCGGCGGTGCGGTGCGGCGGAGTCACCTAGTGCAG | 3640 fluorescence intensity (a.u.)
TATGACATGTGGGCCAACTGCCAAGCAGCCTTACTTGACGCGGAGTCACCTAGTGCAG | 3360 fluorescence intensity (a.u.)
TTATGGCTATTCTGATAAGCCTAATCCACGTGAGCTTGGTCGGAGTCACCTAGTGCAG | 6480 fluorescence intensity (a.u.)
AACCCTGGCCGGGTAGCGTACGTCGTAGTACTTATAAGTACGGAGTCACCTAGTGCAG | 37700 fluorescence intensity (a.u.)
CCTTTTCCGCTTTAAAACACCACACAGTGACACACACACCCGGAGTCACCTAGTGCAG | 5500 fluorescence intensity (a.u.)
GTGAAGGAGCCGCCACGTCTGACTTTTCTTTCTTCTCTCTCGGAGTCACCTAGTGCAG | 11800 fluorescence intensity (a.u.)
TCGAGGCTCGCAGCTCGAACCTTCCTGACACGGTAGCCTTCGGAGTCACCTAGTGCAG | 4060 fluorescence intensity (a.u.)
CCTACCACTGTTGAGTAACCACGTCTTTCGACGTATGCAGCGGAGTCACCTAGTGCAG | 6930 fluorescence intensity (a.u.)
TCCTCTCGGATTCCTCCCTCGCTGAAGCACGTGGCAGTGCCGGAGTCACCTAGTGCAG | 5040 fluorescence intensity (a.u.)
AAGACCTCTCTCTCTCTCTCACTCCAAGAACTCCACGCCACGGAGTCACCTAGTGCAG | 20000 fluorescence intensity (a.u.)
GCTAGCTAGCTATAGCCACCTAATTCATCGCCACGTACAACGGAGTCACCTAGTGCAG | 3940 fluorescence intensity (a.u.)
GTTTCGTCTCGTAATTTACACGCAATCTGTGTAATTAGTTCGGAGTCACCTAGTGCAG | 3460 fluorescence intensity (a.u.)
TAGGCTCGGCCGCCGCCGTCTCTCCCCGTCACGGGCCCGGCGGAGTCACCTAGTGCAG | 3480 fluorescence intensity (a.u.)
GAAGCTGCGTGCGCGGATGCGTTGAGACGGCCACGTGGCGCGGAGTCACCTAGTGCAG | 26300 fluorescence intensity (a.u.)
GTACAGATTTCTACAGCAGCCTTGTCATTCATAAACCAGTCGGAGTCACCTAGTGCAG | 4090 fluorescence intensity (a.u.)
TTCCTGTCTAGCTGATGTAGTCGTACTTTGCAATTTGCATCGGAGTCACCTAGTGCAG | 3480 fluorescence intensity (a.u.)
GGGAAACTCTTCCGTCACCGCCTACCTCACCTCCTCCTACCGGAGTCACCTAGTGCAG | 3150 fluorescence intensity (a.u.)
ATCCAATCTGAGCCGTCCGCTGTACACCGTAGATCTATATCGGAGTCACCTAGTGCAG | 3450 fluorescence intensity (a.u.)
GATCGATCGATCCACGCGCCCGCGCGCCACCGCCGCTGATCGGAGTCACCTAGTGCAG | 3370 fluorescence intensity (a.u.)
GGTGTTTAGTTTATTACGATATATTGGTCATGTCTAAAGACGGAGTCACCTAGTGCAG | 20300 fluorescence intensity (a.u.)
ATCTCCATCTCTATGTGTTACTATGTTATGCGTGTATCGTCGGAGTCACCTAGTGCAG | 3990 fluorescence intensity (a.u.)

Sequence | binding signal
CATTCATGAGGAGAATCATTCACATCCTACACGTGTAGAGCGGAGTCACCTAGTGCAG | 5210 fluorescence intensity (a.u.)
GGCTGTGGGCAGAGAGGAGTTGATGGTGACGAAGGCAGCACGGAGTCACCTAGTGCAG | 4290 fluorescence intensity (a.u.)
TGCTTGAAGCGAAGTATCAGGTGTGTGTCAGTTGGGTCTCCGGAGTCACCTAGTGCAG | 4890 fluorescence intensity (a.u.)
CCTCCGGTGTGATCCGATCACGCGCGGCCTCTCCGCCTCCCGGAGTCACCTAGTGCAG | 3490 fluorescence intensity (a.u.)
AATATGCCGTCACCGATGCTGATGATGCGGATCTCTGGCGCGGAGTCACCTAGTGCAG | 4000 fluorescence intensity (a.u.)
CCTGAATCCATGCTTATTCGGTCATGCTTATGCATGCAGTCGGAGTCACCTAGTGCAG | 4490 fluorescence intensity (a.u.)
CGCTTCGTCATCTCGTCGTCGTTTGTGTTCTTGGATTGGGCGGAGTCACCTAGTGCAG | 4250 fluorescence intensity (a.u.)
TGATGGAAAGTGGTGTCATGCCCACTTCTCTTGCTGGCCTCGGAGTCACCTAGTGCAG | 4270 fluorescence intensity (a.u.)
GATAGATGACGTATTATTAGACAGTGATGCGCTTGTGGTGCGGAGTCACCTAGTGCAG | 7250 fluorescence intensity (a.u.)
TTGAATAAACGAGGAGTTTCTGAAGTAGTGGCATGGTCTGCGGAGTCACCTAGTGCAG | 15500 fluorescence intensity (a.u.)
TGAGGGGTCAGCCACTCTTTCTTCTTTGTCTTTATCAACTCGGAGTCACCTAGTGCAG | 15600 fluorescence intensity (a.u.)
GGAGCGCCCATGGACGCCGCCACGACGTCCGGCCGCGCCGCGGAGTCACCTAGTGCAG | 3670 fluorescence intensity (a.u.)
GGTCCTCTGCCAGGCACATGACGCTGCTATTGCTGCTTTGCGGAGTCACCTAGTGCAG | 5460 fluorescence intensity (a.u.)
ATCTTGGCGTCAGTCTGGAGTGGGCTTTCCAAGCCTGGCCCGGAGTCACCTAGTGCAG | 3200 fluorescence intensity (a.u.)
TCAGCCCCAGCCTCCATGCCTGTGAGAGAACAAGCCGGTTCGGAGTCACCTAGTGCAG | 3530 fluorescence intensity (a.u.)
CGAGGAAATGGTGGCGTCACCTTGACCCTGGGAGAAGAGGCGGAGTCACCTAGTGCAG | 8130 fluorescence intensity (a.u.)
TTCAGTTAATGCTAGTAGTTGCATTTGGTCCAATCTCACACGGAGTCACCTAGTGCAG | 3220 fluorescence intensity (a.u.)
TTGCTTCAATTCTCTCTCATGTGAGTCATGACATACATTGCGGAGTCACCTAGTGCAG | 10500 fluorescence intensity (a.u.)
AGCGCTCCCGGCCATTGGGAGCCACGTCAGCGGCGGCCTCCGGAGTCACCTAGTGCAG | 32100 fluorescence intensity (a.u.)
TTCGTGTGCCTAGGAAAATGGTATCCAAACCCCTCAAAATCGGAGTCACCTAGTGCAG | 4190 fluorescence intensity (a.u.)
CCGCACGCTGTAGCAACATCTTCCAACATTGAAAGATCCCCGGAGTCACCTAGTGCAG | 22400 fluorescence intensity (a.u.)

Three records drawn at random from those above, as already listed:
Sequence | binding signal
ATCTTGGCGTCAGTCTGGAGTGGGCTTTCCAAGCCTGGCCCGGAGTCACCTAGTGCAG | 3200 fluorescence intensity (a.u.)
TTGAATAAACGAGGAGTTTCTGAAGTAGTGGCATGGTCTGCGGAGTCACCTAGTGCAG | 15500 fluorescence intensity (a.u.)
TTCAGTTAATGCTAGTAGTTGCATTTGGTCCAATCTCACACGGAGTCACCTAGTGCAG | 3220 fluorescence intensity (a.u.)
